Source: PubChem BioAssay AID2662 (National Center for Advancing Translational Sciences (NCATS), 2010)
Out of some 290,000 compounds screened, about 110 (0.038%) were called active. Inconclusive results, whose numbers are uncertain, are shown with a selection of clear calls. Calls come from the whole dose curve; as a rule, active = well fitted inhibition curve with a large enough effect in the polarisation, with a control signal flat (not every such curve was filed as active); inconclusive = small, poorly fitted or top-dose-only effect, or effect the other way, or a change in a side signal; inactive = no such curve, though single readings can be large or run the other way; the % refers to the polarisation. Where the call is inconclusive, the potency comes from a doubtful curve fit. A note “side channel” means that the fit belongs to a control or component signal, not to the main read-out.

Sequences of proteins named here, by UniProt entry; tags and fusion partners are left off.
UniProt Q03164, whole entry, looked up: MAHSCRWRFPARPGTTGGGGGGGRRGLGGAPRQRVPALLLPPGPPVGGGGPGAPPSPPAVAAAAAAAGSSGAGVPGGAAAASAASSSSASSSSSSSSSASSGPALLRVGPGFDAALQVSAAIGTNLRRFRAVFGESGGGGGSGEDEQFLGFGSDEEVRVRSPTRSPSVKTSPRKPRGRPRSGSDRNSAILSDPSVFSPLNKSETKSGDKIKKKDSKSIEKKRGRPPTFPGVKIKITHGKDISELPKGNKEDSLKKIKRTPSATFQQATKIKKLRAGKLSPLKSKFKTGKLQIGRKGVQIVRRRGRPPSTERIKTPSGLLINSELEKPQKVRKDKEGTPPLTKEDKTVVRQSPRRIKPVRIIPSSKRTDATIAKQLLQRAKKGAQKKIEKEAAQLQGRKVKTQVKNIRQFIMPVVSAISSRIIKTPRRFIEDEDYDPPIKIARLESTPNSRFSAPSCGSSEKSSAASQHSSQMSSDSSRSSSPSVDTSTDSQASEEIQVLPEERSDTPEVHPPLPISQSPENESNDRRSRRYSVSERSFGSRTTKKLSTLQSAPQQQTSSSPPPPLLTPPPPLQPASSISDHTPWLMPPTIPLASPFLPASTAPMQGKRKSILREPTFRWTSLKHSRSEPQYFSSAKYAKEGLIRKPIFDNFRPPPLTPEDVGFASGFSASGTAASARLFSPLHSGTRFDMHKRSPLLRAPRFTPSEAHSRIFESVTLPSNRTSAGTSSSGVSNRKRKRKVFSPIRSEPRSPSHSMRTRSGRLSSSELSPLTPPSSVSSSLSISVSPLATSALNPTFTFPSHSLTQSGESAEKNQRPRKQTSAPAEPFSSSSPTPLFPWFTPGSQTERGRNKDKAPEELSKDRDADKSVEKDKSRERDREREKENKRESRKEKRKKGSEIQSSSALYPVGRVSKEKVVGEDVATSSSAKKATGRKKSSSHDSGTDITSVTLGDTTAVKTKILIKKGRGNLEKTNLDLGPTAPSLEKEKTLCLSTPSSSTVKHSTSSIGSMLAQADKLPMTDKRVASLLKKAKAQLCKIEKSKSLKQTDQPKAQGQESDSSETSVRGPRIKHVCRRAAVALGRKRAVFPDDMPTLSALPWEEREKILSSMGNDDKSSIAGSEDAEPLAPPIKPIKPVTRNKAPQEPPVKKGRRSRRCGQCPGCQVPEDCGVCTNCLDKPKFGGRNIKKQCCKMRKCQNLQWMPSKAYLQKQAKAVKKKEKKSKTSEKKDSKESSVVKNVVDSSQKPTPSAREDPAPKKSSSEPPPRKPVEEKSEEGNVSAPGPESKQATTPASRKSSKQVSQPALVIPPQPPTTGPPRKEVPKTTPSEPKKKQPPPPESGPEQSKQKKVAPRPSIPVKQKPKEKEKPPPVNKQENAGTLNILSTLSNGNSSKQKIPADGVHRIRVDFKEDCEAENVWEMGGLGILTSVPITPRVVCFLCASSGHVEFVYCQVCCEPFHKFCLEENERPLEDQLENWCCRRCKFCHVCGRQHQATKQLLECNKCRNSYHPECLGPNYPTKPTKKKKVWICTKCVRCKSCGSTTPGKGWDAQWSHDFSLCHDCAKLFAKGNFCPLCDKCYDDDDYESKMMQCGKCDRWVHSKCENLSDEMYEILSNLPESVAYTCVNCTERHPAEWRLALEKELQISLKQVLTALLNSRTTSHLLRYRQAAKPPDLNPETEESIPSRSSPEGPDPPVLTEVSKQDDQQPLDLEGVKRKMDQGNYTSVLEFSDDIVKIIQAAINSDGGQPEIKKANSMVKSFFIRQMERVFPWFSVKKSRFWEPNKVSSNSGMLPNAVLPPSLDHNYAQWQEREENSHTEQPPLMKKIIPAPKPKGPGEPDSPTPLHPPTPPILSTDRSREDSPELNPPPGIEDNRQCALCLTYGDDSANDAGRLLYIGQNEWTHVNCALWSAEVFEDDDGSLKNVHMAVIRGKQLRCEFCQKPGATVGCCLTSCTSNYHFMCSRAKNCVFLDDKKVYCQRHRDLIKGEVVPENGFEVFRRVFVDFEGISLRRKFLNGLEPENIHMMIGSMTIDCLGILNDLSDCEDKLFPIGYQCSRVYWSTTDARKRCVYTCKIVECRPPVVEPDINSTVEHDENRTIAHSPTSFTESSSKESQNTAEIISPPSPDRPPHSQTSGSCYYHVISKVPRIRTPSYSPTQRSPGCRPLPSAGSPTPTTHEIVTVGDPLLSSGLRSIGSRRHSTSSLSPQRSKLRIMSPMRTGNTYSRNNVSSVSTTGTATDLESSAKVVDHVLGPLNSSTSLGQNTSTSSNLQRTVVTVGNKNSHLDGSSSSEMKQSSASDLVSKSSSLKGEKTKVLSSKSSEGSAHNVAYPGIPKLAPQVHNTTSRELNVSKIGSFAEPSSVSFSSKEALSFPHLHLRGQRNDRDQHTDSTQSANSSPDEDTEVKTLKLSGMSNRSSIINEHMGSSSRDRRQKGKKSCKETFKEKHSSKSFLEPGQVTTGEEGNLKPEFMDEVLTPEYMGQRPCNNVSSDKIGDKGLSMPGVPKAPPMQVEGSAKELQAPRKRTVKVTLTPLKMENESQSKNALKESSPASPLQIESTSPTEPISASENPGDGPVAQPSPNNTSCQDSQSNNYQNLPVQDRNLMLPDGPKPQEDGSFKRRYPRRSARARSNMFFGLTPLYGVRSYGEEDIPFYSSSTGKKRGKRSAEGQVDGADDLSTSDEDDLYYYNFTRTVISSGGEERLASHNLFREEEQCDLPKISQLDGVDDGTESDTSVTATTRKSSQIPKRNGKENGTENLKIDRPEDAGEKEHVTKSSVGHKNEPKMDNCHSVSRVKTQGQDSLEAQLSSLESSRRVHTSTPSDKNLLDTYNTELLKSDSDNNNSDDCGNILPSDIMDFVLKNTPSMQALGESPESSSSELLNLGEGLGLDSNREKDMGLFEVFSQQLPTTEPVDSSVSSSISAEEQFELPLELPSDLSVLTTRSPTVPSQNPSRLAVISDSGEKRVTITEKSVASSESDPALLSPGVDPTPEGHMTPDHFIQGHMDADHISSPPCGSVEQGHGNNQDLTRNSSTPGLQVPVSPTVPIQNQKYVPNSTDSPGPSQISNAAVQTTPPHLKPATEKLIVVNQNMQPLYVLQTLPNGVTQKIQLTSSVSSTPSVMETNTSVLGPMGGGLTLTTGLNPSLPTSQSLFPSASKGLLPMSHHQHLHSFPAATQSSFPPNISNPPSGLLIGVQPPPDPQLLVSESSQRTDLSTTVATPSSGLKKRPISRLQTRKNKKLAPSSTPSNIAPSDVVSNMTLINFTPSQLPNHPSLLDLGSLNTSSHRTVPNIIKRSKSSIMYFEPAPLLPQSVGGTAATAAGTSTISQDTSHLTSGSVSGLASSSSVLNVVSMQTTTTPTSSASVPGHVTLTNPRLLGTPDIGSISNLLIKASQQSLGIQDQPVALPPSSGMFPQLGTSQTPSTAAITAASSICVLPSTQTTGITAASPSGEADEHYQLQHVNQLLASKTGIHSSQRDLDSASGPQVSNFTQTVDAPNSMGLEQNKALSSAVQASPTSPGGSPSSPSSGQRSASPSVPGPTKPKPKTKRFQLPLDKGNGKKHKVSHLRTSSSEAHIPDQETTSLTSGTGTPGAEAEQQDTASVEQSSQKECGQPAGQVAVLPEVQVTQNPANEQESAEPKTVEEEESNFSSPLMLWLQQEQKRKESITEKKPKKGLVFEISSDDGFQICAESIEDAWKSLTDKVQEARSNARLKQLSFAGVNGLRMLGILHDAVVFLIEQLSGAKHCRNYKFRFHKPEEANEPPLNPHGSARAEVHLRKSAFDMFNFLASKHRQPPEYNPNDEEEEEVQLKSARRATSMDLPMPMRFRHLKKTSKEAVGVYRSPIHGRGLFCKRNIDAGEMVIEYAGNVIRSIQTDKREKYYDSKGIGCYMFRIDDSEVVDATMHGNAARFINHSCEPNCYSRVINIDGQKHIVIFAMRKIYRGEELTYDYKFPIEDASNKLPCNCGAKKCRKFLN

biological target: Histone-lysine N-methyltransferase 2A (Homo sapiens) (UniProt Q03164); assay: qHTS Fluorescence Polarization Assay for Inhibitors of MLL CXXC domain - DNA interaction; conditions: MLL-CXXC / FITC-HOXA9 DNA fluorescence polarization; activity change, negative = inhibition: at 115 µM (top of the series)
How it was run: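 Steps: dispense CXXC domain solution (7 uM) → pin compounds or unlabeled HOX-A9 DNA control → 5 min ambient → add FLSN-HOX-A9 solution (50 nM) → spin → 30 min ambient → fluorescence polarization. Tris pH 7.5/NaCl/DTT/BSA buffer.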
Potency is the fitted concentration of half-maximal effect.

Row | Structure (SMILES) | Potency | activity change, negative = inhibition
1 | COc1cc(CNCCc2c[nH]c3ccccc23)ccc1OCc1ccc(F)cc1 | inconclusive: 31.6 µM [quencher, partial curve] | –
2 | NC(=O)c1ccc(C(F)(F)F)cn1 | inconclusive: 2 µM [inhibitor, full curve, poor fit] | –
3 | O=C1C(=O)N(CCN2CCOCC2)C(c2ccccc2)/C1=C(\O)c1ccc2c(c1)OCCO2 (stereo unspecified) | inconclusive: 11.2 µM [fluorescent, side channel, full curve] | –
4 | Nc1ccc(N(c2ccccc2)c2ccc(N)cc2)cc1 | – | inactive: -1.66%
5 | COc1ccc(S(=O)(=O)N2CCCCCC2)cc1C(=O)OCC(=O)NC(C)(C)C | inconclusive: 15.8 µM [fluorescent, side channel, single point] | –
6 | Cc1cccc(-n2c(O)c(C=Nc3ccccc3O)c3ccccc3c2=O)n1 | inconclusive: 15.8 µM [quencher, side channel, full curve] | –
7 | CCn1nc([N+](=O)[O-])c(C(C#N)c2nc3cc(C(F)(F)F)ccc3s2)c(Cl)c1=O (stereo unspecified) | inconclusive: 15.8 µM [quencher, side channel, single point] | –
8 | COc1cc2ccccc2cc1C(=O)Nc1sc2c(c1C(N)=O)CCN(C(C)C)C2 | inconclusive: 25.1 µM [quencher, side channel, partial curve] | –
9 | COC(=O)c1ccc(C2SCC(=O)N2Cc2ccccc2)cc1 (stereo unspecified) | inconclusive: 70.8 µM [fluorescent, side channel, single point] | –
10 | Cc1ccc2[nH]c3nc(SCCN4CCOCC4)nnc3c2c1 | – | inactive: 11.9%
11 | COCc1nnc(NC(=O)c2ccc(S(=O)(=O)N3CCCC3)cc2)o1 | inconclusive: 14.1 µM [fluorescent, side channel, single point] | –
12 | CC1CCCN(c2ccc(N)cc2C(N)=O)C1 (stereo unspecified) | – | inactive: 2.14%
13 | N#C/C(=C/c1ccc(N2CCOCC2)o1)c1nc2ccccc2[nH]1 | inconclusive: 3.16 µM [fluorescent, side channel, full curve] | –
14 | Cc1cccc(N(C(=O)c2csnn2)C(C(=O)NC2CCCC2)c2ccncc2)c1 (stereo unspecified) | inconclusive: 10 µM [fluorescent, side channel, full curve] | –
15 | NC(=O)N/N=C/c1coc2ccc(O)cc2c1=O | – | inactive: 4.45%
16 | CCCS(=O)(=O)N1CCN(CC2CC=CCC2)CC1 (stereo unspecified) | – | inactive: 7.63%
17 | CC1(C)C(=O)OC(c2cccn2-c2ccc([N+](=O)[O-])cc2)C2(CCCCC2)C1=O (stereo unspecified) | – | inactive: 2.57%
18 | O=C(O)CCCNc1cc(N2CCC3(CC2)OCCO3)c2noc3c2c1C(=O)c1ccccc1-3 | inconclusive: 35.5 µM [fluorescent, side channel, partial curve] | –
19 | COc1ccccc1CNc1nc(=S)[nH]c2cc(OC)c(OC)cc12 | inconclusive: 12.6 µM [fluorescent, side channel, single point] | –
20 | COc1ccc(CNc2nc(-c3cccnc3)nn2S(C)(=O)=O)cc1 | – | inactive: 0.779%
21 | O=C(CCCC(=O)Nc1ccc(Br)cc1)N/N=C/c1ccccc1 | inconclusive: 89.1 µM [quencher, side channel, single point] | –

Filtered by structure, those above with a nitro group on carbon.
Row | Structure (SMILES) | Potency | activity change, negative = inhibition
7 | CCn1nc([N+](=O)[O-])c(C(C#N)c2nc3cc(C(F)(F)F)ccc3s2)c(Cl)c1=O (stereo unspecified) | inconclusive: 15.8 µM [quencher, side channel, single point] | –
17 | CC1(C)C(=O)OC(c2cccn2-c2ccc([N+](=O)[O-])cc2)C2(CCCCC2)C1=O (stereo unspecified) | – | inactive: 2.57%

Going on with the list.

Row | Structure (SMILES) | Potency | activity change, negative = inhibition
22 | O=C(CCCNC(=O)c1ccc(Cl)cc1)NCc1ccccc1Cl | inconclusive: 44.7 µM [inhibitor, single point] | –
23 | Oc1ccc(/C=N/N2CCCCC2)c(O)c1O | inconclusive: 11.2 µM [inhibitor, full curve] | –
24 | CCCCCCN1C=C/C(=C\C=C(C#N)C#N)c2ccccc21 | – | inactive: 28.8%
25 | CNC(=O)/C(C#N)=C/c1c(N2CCN(c3ccccc3)CC2)nc2c(C)cccn2c1=O | inconclusive: 56.2 µM [fluorescent, side channel, single point] | –
26 | COc1cc2c3nnc(-c4ccc(F)cc4)c-3cn(Cc3ccccc3F)c2cc1OC | inconclusive: 35.5 µM [fluorescent, single point] | –
27 | C=CCN(c1ccc(C(=O)Nc2ccc3c(c2)OCO3)cc1)S(C)(=O)=O | – | inactive: -0.696%
28 | O=C(CNc1ccc2ccccc2c1)N/N=C/c1ccncc1 | inconclusive: 70.8 µM [quencher, side channel, single point] | –
29 | O=C(O)c1ccc(NC(=O)c2cccc(N3C(=O)C4C5CCC(C5)C4C3=O)c2)cc1 (stereo unspecified) | – | inactive: 2.03%
30 | O=c1[nH]c(SCc2c(Cl)cccc2Cl)nc2ccccc12 | inconclusive: 31.6 µM [inhibitor, single point] | –
31 | Cc1nc2c(c(=O)c3ccccc3n2C)c(=O)n1C1CCCCCC1 | – | inactive: -10.3%
32 | COc1ccc(C2CC(c3cccs3)=NN2C(=O)CCC(=O)O)cc1 (stereo unspecified) | – | inactive: 5.6%
33 | CCN(CC)S(=O)(=O)c1ccc(NC(=O)COC(=O)CNS(=O)(=O)/C=C/c2ccccc2)cc1 | inconclusive: 7.08 µM [fluorescent, side channel, full curve] | –
34 | COc1ccccc1C(=O)N1CCN(Cc2nc3cc([N+](=O)[O-])ccc3n2C)CC1 | inconclusive: 17.8 µM [inhibitor, partial curve] | –
35 | COc1cc(C(=O)N(CCN(C)C)CC2CCCN(Cc3ccccc3F)C2)ccc1C (stereo unspecified) | – | inactive: 2.79%
36 | O=C(Cc1ccccc1F)Nc1nc(-c2ccc(F)c(F)c2)cs1 | – | inactive: 6.81%
37 | COc1ccc(S(=O)(=O)N2CCN(C/C=C/c3ccccc3)CC2)cc1F | inconclusive: 7.08 µM [fluorescent, side channel, single point] | –
38 | CCCS(=O)(=O)c1nc(S(=O)(=O)c2ccc(C)cc2)c(N2CCOCC2)s1 | inconclusive: 56.2 µM [quencher, side channel, single point] | –
39 | CCOC(=O)C1CCN(C(=O)Nc2ccc3nc(-c4ccco4)c(-c4ccco4)nc3c2)CC1 | inconclusive: 39.8 µM [inhibitor, partial curve] | –
40 | CC(=O)Nc1ccc(NC(=O)CSc2nnnn2-c2ccc(F)cc2)cc1 | inconclusive: 31.6 µM [quencher, side channel, single point] | –
41 | CCOC(CCNC(=O)c1cn(C)c(=O)c2c1c1ccccc1n2C)OCC | inconclusive: 3.16 µM [fluorescent, side channel, partial curve] | –
